Results on 31 targets are retold here after the supplement of paper PMC12823440, “Inhibitors supercharge kinase turnover through native proteolytic circuits” (Nature, 2025).

Sequences of proteins named here, by UniProt entry; tags and fusion partners are left off. A change or cut given only in a name is not applied to a line headed by its entry.
UniProt Q6PHR2: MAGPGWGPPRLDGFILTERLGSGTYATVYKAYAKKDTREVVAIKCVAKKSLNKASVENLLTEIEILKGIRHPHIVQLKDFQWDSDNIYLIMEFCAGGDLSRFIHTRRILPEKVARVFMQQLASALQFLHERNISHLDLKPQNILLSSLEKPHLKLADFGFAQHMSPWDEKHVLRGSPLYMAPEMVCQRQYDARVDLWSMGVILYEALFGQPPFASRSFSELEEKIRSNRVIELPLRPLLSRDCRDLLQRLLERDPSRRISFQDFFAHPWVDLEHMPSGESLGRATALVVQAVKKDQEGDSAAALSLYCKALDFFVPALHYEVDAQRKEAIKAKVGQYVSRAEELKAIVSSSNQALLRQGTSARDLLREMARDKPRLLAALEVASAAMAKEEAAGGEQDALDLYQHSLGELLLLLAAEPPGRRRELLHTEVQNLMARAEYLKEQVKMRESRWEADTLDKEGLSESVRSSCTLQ
UniProt Q15131: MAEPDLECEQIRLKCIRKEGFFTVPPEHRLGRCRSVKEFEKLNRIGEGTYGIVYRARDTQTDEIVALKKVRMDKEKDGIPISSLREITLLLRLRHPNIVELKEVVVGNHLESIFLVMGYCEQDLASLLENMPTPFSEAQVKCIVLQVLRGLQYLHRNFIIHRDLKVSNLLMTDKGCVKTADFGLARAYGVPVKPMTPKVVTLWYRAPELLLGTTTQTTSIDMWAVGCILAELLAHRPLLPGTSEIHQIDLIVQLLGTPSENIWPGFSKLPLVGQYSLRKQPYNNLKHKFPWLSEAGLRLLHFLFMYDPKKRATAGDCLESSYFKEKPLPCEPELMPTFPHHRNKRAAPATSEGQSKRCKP
UniProt Q9BRS2: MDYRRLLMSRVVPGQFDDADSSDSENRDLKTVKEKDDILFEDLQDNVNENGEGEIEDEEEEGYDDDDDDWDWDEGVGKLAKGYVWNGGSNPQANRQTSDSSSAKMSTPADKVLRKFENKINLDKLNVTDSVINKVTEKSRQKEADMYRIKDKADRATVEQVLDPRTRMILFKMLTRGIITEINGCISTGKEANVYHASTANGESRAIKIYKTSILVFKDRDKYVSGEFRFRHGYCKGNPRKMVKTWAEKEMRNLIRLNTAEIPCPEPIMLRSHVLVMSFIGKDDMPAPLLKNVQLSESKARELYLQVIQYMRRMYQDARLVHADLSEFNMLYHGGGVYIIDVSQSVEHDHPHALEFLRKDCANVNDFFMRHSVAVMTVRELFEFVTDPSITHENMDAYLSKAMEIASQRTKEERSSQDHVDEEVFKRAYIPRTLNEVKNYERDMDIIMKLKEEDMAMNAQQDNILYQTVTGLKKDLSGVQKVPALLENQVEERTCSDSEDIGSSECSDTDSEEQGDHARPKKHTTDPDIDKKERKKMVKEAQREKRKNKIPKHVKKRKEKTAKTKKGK
UniProt P07947, whole entry, looked up: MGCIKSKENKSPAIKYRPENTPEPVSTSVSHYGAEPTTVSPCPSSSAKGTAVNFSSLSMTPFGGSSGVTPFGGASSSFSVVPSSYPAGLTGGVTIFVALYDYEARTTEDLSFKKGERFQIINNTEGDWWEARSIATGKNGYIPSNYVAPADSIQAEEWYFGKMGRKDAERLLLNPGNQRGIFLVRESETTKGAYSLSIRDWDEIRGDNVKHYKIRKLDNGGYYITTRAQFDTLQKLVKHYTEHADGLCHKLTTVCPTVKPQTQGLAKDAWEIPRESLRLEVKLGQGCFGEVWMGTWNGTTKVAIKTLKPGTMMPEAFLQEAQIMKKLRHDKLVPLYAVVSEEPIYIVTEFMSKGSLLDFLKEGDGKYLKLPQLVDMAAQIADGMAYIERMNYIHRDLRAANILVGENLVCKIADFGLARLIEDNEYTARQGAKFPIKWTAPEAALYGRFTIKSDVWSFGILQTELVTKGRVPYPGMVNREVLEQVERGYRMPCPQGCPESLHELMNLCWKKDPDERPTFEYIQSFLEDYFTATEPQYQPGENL
UniProt Q96GD4, whole entry: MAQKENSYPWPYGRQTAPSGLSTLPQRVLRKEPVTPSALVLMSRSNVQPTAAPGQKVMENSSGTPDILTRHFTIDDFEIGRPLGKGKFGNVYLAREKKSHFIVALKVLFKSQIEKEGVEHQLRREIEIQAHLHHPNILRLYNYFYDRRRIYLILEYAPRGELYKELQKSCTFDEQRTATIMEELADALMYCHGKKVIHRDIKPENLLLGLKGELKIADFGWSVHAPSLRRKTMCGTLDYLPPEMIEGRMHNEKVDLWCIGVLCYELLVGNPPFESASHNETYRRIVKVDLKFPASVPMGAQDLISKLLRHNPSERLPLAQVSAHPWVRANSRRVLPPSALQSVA
UniProt Q92630: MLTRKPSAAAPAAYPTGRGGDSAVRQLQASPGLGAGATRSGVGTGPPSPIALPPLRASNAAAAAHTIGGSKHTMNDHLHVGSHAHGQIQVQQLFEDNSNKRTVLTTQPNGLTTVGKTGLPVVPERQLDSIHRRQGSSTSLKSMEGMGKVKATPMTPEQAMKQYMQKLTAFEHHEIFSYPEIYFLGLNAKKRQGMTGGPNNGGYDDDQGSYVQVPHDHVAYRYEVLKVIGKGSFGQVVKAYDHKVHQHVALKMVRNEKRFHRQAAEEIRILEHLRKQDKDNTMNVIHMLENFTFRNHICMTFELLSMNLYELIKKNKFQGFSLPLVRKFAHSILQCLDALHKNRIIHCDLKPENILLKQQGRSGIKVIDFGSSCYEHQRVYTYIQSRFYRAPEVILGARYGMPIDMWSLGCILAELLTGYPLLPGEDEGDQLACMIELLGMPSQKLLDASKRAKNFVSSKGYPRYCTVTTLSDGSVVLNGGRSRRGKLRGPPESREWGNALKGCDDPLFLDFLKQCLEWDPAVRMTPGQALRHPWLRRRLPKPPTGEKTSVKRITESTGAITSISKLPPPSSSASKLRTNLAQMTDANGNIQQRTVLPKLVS
UniProt O96013: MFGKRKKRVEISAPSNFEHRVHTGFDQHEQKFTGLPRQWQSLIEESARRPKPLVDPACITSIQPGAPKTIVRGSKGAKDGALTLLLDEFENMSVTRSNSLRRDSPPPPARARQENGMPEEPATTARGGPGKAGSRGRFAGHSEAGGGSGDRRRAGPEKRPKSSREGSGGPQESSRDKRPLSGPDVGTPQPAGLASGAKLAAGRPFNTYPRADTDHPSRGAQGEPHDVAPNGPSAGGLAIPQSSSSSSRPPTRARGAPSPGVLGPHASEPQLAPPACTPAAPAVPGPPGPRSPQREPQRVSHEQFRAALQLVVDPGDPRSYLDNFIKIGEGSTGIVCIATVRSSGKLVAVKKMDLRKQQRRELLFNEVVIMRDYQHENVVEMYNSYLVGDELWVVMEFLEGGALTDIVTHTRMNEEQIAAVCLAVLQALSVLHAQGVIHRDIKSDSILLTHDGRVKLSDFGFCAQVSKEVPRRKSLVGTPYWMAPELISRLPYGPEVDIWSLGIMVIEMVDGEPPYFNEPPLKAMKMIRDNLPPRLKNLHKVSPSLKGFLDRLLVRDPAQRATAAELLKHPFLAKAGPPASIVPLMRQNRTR
UniProt Q16620, whole entry, looked up: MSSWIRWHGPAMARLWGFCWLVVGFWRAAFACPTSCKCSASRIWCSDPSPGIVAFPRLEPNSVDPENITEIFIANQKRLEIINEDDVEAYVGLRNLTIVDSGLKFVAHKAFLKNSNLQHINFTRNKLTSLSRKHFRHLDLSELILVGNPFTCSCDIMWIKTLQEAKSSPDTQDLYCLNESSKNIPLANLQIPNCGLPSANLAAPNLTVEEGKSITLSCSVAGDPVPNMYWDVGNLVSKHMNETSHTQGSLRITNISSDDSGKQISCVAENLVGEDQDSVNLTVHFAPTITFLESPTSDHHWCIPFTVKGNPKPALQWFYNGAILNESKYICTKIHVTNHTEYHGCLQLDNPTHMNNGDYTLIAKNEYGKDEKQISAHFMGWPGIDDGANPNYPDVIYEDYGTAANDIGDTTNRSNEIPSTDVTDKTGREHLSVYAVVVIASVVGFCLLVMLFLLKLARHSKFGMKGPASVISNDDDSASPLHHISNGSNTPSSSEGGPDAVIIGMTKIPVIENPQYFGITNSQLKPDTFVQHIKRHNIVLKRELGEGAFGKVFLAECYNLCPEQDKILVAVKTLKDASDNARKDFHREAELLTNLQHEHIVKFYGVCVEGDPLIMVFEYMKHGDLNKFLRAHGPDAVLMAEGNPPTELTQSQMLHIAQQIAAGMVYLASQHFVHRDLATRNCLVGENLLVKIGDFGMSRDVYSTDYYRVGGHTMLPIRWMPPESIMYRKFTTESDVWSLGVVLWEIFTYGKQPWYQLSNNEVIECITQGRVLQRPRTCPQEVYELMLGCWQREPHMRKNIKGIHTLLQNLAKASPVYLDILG
UniProt Q9UQM7, whole entry: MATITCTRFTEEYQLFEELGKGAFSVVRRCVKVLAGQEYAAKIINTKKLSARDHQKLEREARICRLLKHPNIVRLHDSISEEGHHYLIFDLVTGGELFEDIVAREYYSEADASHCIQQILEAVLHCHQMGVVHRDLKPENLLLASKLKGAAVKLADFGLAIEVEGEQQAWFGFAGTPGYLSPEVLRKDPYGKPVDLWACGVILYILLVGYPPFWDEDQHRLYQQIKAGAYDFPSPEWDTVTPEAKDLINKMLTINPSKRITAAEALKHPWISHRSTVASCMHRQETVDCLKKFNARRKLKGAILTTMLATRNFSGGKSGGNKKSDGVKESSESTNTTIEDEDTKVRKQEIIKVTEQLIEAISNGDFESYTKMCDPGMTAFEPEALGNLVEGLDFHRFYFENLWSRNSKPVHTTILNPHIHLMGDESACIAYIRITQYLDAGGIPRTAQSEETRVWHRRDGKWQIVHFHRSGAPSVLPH
UniProt Q13555: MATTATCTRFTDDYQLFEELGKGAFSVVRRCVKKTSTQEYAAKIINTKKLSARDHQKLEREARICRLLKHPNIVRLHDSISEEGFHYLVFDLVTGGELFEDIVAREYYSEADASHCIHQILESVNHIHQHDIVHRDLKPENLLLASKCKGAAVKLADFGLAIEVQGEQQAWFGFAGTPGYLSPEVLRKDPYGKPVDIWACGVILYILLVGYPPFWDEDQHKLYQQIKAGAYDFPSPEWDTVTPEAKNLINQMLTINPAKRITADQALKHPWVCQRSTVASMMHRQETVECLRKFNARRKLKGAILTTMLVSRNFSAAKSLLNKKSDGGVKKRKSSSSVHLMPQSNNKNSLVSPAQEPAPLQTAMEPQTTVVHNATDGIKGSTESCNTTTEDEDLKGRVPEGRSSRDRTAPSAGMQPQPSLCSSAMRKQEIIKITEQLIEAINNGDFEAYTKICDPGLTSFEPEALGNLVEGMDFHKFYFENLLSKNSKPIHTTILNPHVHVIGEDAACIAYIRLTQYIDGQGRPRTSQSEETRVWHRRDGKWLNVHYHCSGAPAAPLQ
UniProt Q9Y463, whole entry, looked up: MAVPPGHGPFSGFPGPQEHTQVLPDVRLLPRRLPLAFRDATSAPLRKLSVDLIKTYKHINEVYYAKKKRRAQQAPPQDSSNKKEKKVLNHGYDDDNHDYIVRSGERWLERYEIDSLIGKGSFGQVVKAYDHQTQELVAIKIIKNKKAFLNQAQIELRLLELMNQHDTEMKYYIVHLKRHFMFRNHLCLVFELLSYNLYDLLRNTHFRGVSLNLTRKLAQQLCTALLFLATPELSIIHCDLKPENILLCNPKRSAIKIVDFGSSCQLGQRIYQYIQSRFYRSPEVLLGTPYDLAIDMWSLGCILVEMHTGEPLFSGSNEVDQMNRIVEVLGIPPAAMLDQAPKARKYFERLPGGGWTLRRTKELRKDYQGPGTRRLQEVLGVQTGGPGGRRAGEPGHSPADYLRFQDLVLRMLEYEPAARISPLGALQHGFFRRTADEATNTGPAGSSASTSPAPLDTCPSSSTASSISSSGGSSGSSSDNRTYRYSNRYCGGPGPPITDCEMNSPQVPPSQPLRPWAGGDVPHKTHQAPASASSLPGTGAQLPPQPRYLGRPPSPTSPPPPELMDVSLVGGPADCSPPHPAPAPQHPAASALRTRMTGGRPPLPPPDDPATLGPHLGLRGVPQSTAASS
UniProt P28482, whole entry: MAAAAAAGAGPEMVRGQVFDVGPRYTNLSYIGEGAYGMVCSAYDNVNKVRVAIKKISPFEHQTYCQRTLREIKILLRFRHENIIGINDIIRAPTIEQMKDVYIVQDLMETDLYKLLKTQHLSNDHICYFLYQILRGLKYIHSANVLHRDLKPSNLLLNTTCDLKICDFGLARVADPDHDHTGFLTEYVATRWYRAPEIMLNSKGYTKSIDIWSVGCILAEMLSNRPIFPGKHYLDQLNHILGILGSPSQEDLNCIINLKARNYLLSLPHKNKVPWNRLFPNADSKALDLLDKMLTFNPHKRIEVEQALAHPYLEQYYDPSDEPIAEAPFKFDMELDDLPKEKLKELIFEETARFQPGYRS

The list shows a part of the results. The calls rarely recur for the same compound in another form.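 Kinases were expressed as nanoluciferase fusions in K562 cells and luminescence was read every 4 h between 2 and 18 h as percent of control, DMSO set to 100% and a positive control to 0%. A time point counts as decreased when the signal drops significantly (2 sigma). The hit call is the authors' own, does not follow from the count of time points alone, and its rule is not shown.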

Compound in one experiment: CCc1cc2c(cc1-c1cnn(CC(=O)N(C)C)c1)C(C)(C)c1[nH]c3cc(C#N)ccc3c1C2=O
The experiment is described as follows: number of time points (of 5) at which kinase-Nluc abundance scored as decreased, DMSO-normalised (count); higher = more persistent destabilization. The following applies: 2.5 µM; K562; 2-18 h.
Regarding ULK3 (UniProt Q6PHR2), the “number of time points” value was 0.

As to DDR1 (UniProt Q08345), the “number of time points” value was found to be 0.

As to CDK10 (UniProt Q15131), the “number of time points” value is 0.

As to RIOK1 (UniProt Q9BRS2), the “number of time points” value is 0.

As for YES1 (UniProt P07947), the “number of time points” value turned out to be 0.

For the target AURKB (UniProt Q96GD4), the “number of time points” value is 0.

Consider BRAF (UniProt P15056), for which the “number of time points” value came to 0.

For DYRK2 (UniProt Q92630), the “number of time points” value is 0.

Regarding ARAF (UniProt P10398), the “number of time points” value was 0.

On to MAP2K2 (UniProt P36507), for which the “number of time points” value worked out at 0.

As for CDK2 (UniProt P24941), the “number of time points” value was 0.

Take PDPK1 (UniProt O15530): the “number of time points” value came out at 0.

With STK24 (UniProt Q9Y6E0), the “number of time points” value came to 0.

On to PAK4 (UniProt O96013), for which the “number of time points” value is 0.

ZAK (UniProt Q9NYL2): the “number of time points” value was 0.

As for NTRK2 (UniProt Q16620), the “number of time points” value was determined as 0.

Take CDK3 (UniProt Q00526): the “number of time points” value is 0.

As for CAMK2A (UniProt Q9UQM7), the “number of time points” value is 0.

RIPK2 (UniProt O43353): the “number of time points” value is 0.

Consider CAMK2G (UniProt Q13555), for which the “number of time points” value is 0.

For the target DYRK1B (UniProt Q9Y463), the “number of time points” value was found to be 0.

For the target PRKCA (UniProt P17252), the “number of time points” value worked out at 0.

As for MAPK1 (UniProt P28482), the “number of time points” value worked out at 0.

Regarding MKNK1 (UniProt Q9BUB5), the “number of time points” value was 0.

As for FGR (UniProt P09769), the “number of time points” value came to 0.

Turning to RIPK1 (UniProt Q13546), the “number of time points” value is 0.

On to AKT1 (UniProt P31749), for which the “number of time points” value amounted to 0.

In the case of MAPKAPK2 (UniProt P49137), the “number of time points” value was 0.

In the case of SRC (UniProt P12931), the “number of time points” value came out at 0.

Take PIK4CB (UniProt Q9UBF8): the “number of time points” value amounted to 0.

Consider MAP2K1 (UniProt Q02750), for which the “number of time points” value is 0.

Compound in a further experiment: CCn1c(=O)c(-c2cc(NC(=O)Nc3ccccc3)c(F)cc2Br)cc2cnc(NC)cc21 [Ripretinib]
The experiment is described as above. The note with it: 10 µM; K562; 2-18 h.
Consider ULK3 (UniProt Q6PHR2), for which the “number of time points” value was 4.

For the target DDR1 (UniProt Q08345), the “number of time points” value was 0.

CDK10 (UniProt Q15131): the “number of time points” value was 0.

As for RIOK1 (UniProt Q9BRS2), the “number of time points” value was 0.

For the target YES1 (UniProt P07947), the “number of time points” value came out at 1.

As to AURKB (UniProt Q96GD4), the “number of time points” value came to 0.

Take BRAF (UniProt P15056): the “number of time points” value came out at 0.

For the target DYRK2 (UniProt Q92630), the “number of time points” value was determined as 4.

Turning to ARAF (UniProt P10398), the “number of time points” value stood at 0.

Take MAP2K2 (UniProt P36507): the “number of time points” value is 1.

CDK2 (UniProt P24941): the “number of time points” value is 0.

Consider PDPK1 (UniProt O15530), for which the “number of time points” value was 0.

STK24 (UniProt Q9Y6E0): the “number of time points” value is 0.

With PAK4 (UniProt O96013), the “number of time points” value stood at 0.

In the case of ZAK (UniProt Q9NYL2), the “number of time points” value is 0.

Consider NTRK2 (UniProt Q16620), for which the “number of time points” value was 4.

As for CDK3 (UniProt Q00526), the “number of time points” value is 1.

Turning to CAMK2A (UniProt Q9UQM7), the “number of time points” value stood at 0.

Take RIPK2 (UniProt O43353): the “number of time points” value amounted to 0.

For CAMK2G (UniProt Q13555), the “number of time points” value amounted to 0.

For DYRK1B (UniProt Q9Y463), the “number of time points” value was 0.

For the target PRKCA (UniProt P17252), the “number of time points” value was 0.

Turning to MAPK1 (UniProt P28482), the “number of time points” value amounted to 0.

Consider MKNK1 (UniProt Q9BUB5), for which the “number of time points” value was 5.

For the target FGR (UniProt P09769), the “number of time points” value is 0.

For RIPK1 (UniProt Q13546), the “number of time points” value turned out to be 0.

As for AKT1 (UniProt P31749), the “number of time points” value came to 0.

For MAPKAPK2 (UniProt P49137), the “number of time points” value amounted to 0.

With SRC (UniProt P12931), the “number of time points” value was 0.

In the case of PIK4CB (UniProt Q9UBF8), the “number of time points” value turned out to be 4.

MAP2K1 (UniProt Q02750): the “number of time points” value was found to be 0.
